According to PubChem BioAssay AID2685 (National Center for Advancing Translational Sciences (NCATS), 2010):
The list shows a part of the results. Shown are side measurements of this screen, not its main read-out; they come without a call. Most of these compounds were active or inconclusive in the main read-out, so they are no random draw. Words in brackets tell the shape of the fitted curve; partial curves, single points and poor fits give uncertain potencies.

Assay: qHTS Assay for Lipid Storage Modulators in Drosophila S3 Cells;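 on cell number change: cells counted by Cell Tracker Red CMTPX staining in the red channel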
Settings: BODIPY lipid droplet fluorescence, 18-24 h; for cell number change: measured here: cell count max response, cells fed with added oleic acid
In short: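 Laser-scanning cytometry quantifies lipid droplet accumulation (500–530 nm total intensity; droplet/cell object ratio) in oleic acid-fed (400 uM added) Drosophila S3 cells treated with a concentration series. 20 uM Triacsin C defined 100% inhibition.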

[1] = measured here: lipid fluorescence (Fed channel) AC50, cells fed with added oleic acid
[2] = measured here: cell number channel AC50, cells fed with added oleic acid

Row | Compound | cell number change | AC50 [1] | AC50 [2]
1 | C/C(N)=C(/C#N)C(=O)COC(=O)c1oc2ccccc2c1COC(C)C | -24.7% | 3.66 µM [falling, partial curve, poor fit] | 
2 | COc1cc(NC(=O)[C@H](C)NC(=O)N2CCn3c2nc2ccccc23)cc(OC)c1 | 9.67% |  | 
3 | CC(=O)c1c(C)oc2ccc(NS(=O)(=O)c3ccccc3)cc12 | 18.4% |  | 
4 | O=C(COC(=O)c1cccc(O)c1)Nc1nnc(-c2ccccc2)o1 | 18.5% |  | 
5 | Cc1cccc(Cn2c(NCCO)nc3c2c(=O)n(C)c(=O)n3C)c1 | -56.5% | 18.4 µM [falling, partial curve] | 10.3 µM [falling, partial curve]
6 | Cc1ccc(/C=N/NC(=O)Cc2c[nH]c3ccccc23)c(C)c1 | -27.1% | 29.1 µM [falling, single point] | 
7 | COc1ccc(CCNC(=O)c2cc3sccc3n2C)cc1OC | -30.4% | 29.1 µM [falling, single point] | 29.1 µM [falling, single point]
8 | COC(=O)C(CCSC)NC(=O)C(NC(=O)C1CCC(C)CC1)C(C)C (configuration not stated) | 0.72% |  | 
9 | CC(=O)NC(Cc1cccc(F)c1)C(=O)NC1CCN(C(=O)Nc2ccc(C)cc2)CC1 (configuration not stated) | 5.13% |  | 3.26 µM [rising, partial curve, poor fit]
10 | COc1ccc(N2CCN(CCCNC(=O)CCC(=O)N3CCOc4ccc(Cl)cc43)CC2)cc1 | 21.2% | 0.58 µM [rising, single point] | 
11 | COc1ccccc1N(C)S(=O)(=O)c1ccc(C)c(C(=O)NC(C)c2ccccn2)c1 (configuration not stated) | 30.7% | 32.6 µM [rising, single point] | 
12 | C=CCn1c(NCc2cc(Cl)ccc2O)nc2ccccc21 | -16.5% | 23.1 µM [falling, single point] | 
13 | O=C(Cc1ccc(NC2=NC3CS(=O)(=O)CC3S2)cc1)NCc1ccccc1Cl (configuration not stated) | 22.5% |  | 7.31 µM [rising, partial curve, poor fit]
14 | CCCS(=O)(=O)N1CCCC(C(=O)NCCCN2CCN(c3cccc(Cl)c3)CC2)C1 (configuration not stated) | -31.5% | 0.0291 µM [falling, full curve, poor fit] | 29.1 µM [falling, single point]
15 | CCc1c(C(=O)NC2CCCC2)csc1C | 48% |  | 20.6 µM [rising, single point]
16 | CN1N=C(C(C)(C)C)CSC1=Nc1ccccc1 | -18.6% | 29.1 µM [falling, single point] | 
17 | Cc1cccc(OCc2nnc(SC(C)C(=O)O)n2Cc2ccccc2)c1 (configuration not stated) | 16.6% | 0.0259 µM [rising, full curve, poor fit] | 
18 | COC(=O)c1cc2ccccc2c(-c2c(OC)c(C(=O)OC)cc3ccccc23)c1OC | -16.8% | 1.64 µM [falling, partial curve] | 
19 | CCCCCn1c(Br)nc2c1c(=O)n(CC(N)=O)c(=O)n2C | 2.53% | 0.259 µM [rising, full curve] | 

An excerpt from above in order of formula weight, smallest number first.
Row | Compound | cell number change | AC50 [1] | AC50 [2]
16 | CN1N=C(C(C)(C)C)CSC1=Nc1ccccc1 | -18.6% | 29.1 µM [falling, single point] | 
3 | CC(=O)c1c(C)oc2ccc(NS(=O)(=O)c3ccccc3)cc12 | 18.4% |  | 
13 | O=C(Cc1ccc(NC2=NC3CS(=O)(=O)CC3S2)cc1)NCc1ccccc1Cl (configuration not stated) | 22.5% |  | 7.31 µM [rising, partial curve, poor fit]

(more compounds)

Row | Compound | cell number change | AC50 [1] | AC50 [2]
20 | C=CCN(c1ccccc1)S(=O)(=O)c1cccc(C(=O)N2CC(C)CC(C)C2)c1 (configuration not stated) | -15.4% |  | 
21 | COc1ccc(-c2nc(C#N)c(N3CCC(C(N)=O)CC3)o2)cc1 | 86% |  | 29.1 µM [rising, single point]
22 | COc1ccccc1/C=N/Nc1nc(C)cc(C)n1 | -3.31% | 0.731 µM [rising, full curve, poor fit] | 
23 | CN(/N=C/c1cc(Cl)cc(Cl)c1O)c1c(Cl)cccc1[N+](=O)[O-] | -41.2% | 29.1 µM [falling, single point] | 29.1 µM [falling, single point]
24 | Cn1c(COc2ccccc2)nnc1SCc1nc2ccccc2[nH]1 | -10.5% | 0.0259 µM [falling, full curve, poor fit] | 
25 | O=C(C1CCN(S(=O)(=O)c2ccc(F)cc2)CC1)N1CCOCC1 | -8.93% |  | 
26 | CC1CN(S(=O)(=O)c2cn(C)c(=O)n(C)c2=O)CC(C)O1 (configuration not stated) | -33.1% | 4.11 µM [falling, full curve] | 0.146 µM [falling, full curve, poor fit]
27 | O=C(O)c1cc(=O)[nH]c2c(Cl)cccc12 | -57.8% | 6.51 µM [falling, single point] | 6.51 µM [falling, single point]
28 | COc1ccc(NC(=O)C2CCCN2C(=O)NCc2ccccc2)cc1 (configuration not stated) | -3.2% | 4.11 µM [falling, single point] | 
29 | O=C(NCc1ccccn1)c1ccc(Cn2c(=S)[nH]c3ccccc3c2=O)cc1 | -65% | 29.1 µM [falling, single point] | 29.1 µM [falling, single point]
30 | CN(Cc1ccccc1)c1ccc(N2C(=O)CCCC2=O)cc1[N+](=O)[O-] | -38% | 0.92 µM [falling, full curve] | 0.206 µM [falling, full curve]
31 | Cc1ccc(CCN2CC(C(=O)O)CC2=O)cc1 (configuration not stated) | -28.2% | 6.51 µM [rising, single point] | 
32 | CC1Cc2cc(S(=O)(=O)CCC(=O)N3CCN(c4ccccc4)CC3)ccc2N1C(=O)C1CC1 (configuration not stated) | 18.7% | 7.31 µM [rising, partial curve] | 
33 | CN(CCOC(=O)c1ccco1)Cc1ccccc1 | 4.28% |  | 
34 | O=C(/C=C/c1ccccc1)OCC(=O)N1CCCC1 | 16.7% | 2.91 µM [rising, partial curve, poor fit] | 
35 | O=C(N/N=C/c1cccnc1)c1cc2ccccc2o1 | -16.4% | 2.06 µM [falling, partial curve] | 
36 | CCOc1ccc(-n2nc3c(=O)[nH]nc(C)c3c2C)cc1 | 16.7% | 11.6 µM [rising, partial curve, poor fit] | 
37 | O=C(Nc1ccc(F)cc1)c1ccc(S(=O)(=O)NCC2CCCO2)cc1 (configuration not stated) | -12.6% | 0.13 µM [falling, full curve, poor fit] | 
38 | OCCCCNCc1cc(Br)ccc1OCc1ccccc1 | -19.2% | 6.51 µM [rising, single point] | 
